Experimental data from PMC4738331, “A molecular mechanism realizing sequence-specific recognition of nucleic acids by TDP-43”.
For some assays here: A negative result means that nothing was seen under these conditions. At least one verdict was read from the data and is not stated in words by the source. For some assays here: Construct, isoform or probe ends are uncertain for at least one entry.

Experiments:
TDP-43 RRM1-2 = TDP-43 RRM1-2 (UniProt Q13148); experiment: pull-down; conditions: pull-down: same buffer on Ni resin, room temperature, 1 h, eluted with 1 M NaCl; recombinant protein; residues 96-267; single-stranded DNA
TDP-43 RRM2 = TDP-43 RRM2 (UniProt Q13148); experiment: pull-down; conditions: pull-down: same buffer on Ni resin, room temperature, 1 h, eluted with 1 M NaCl; recombinant protein; residues 186-267; single-stranded DNA
[1] = tested on: TDP-43 RRM2-1 (swapped order); experiment: pull-down; conditions: pull-down: same buffer on Ni resin, room temperature, 1 h, eluted with 1 M NaCl; recombinant protein; protein details: N-term His6; single-stranded DNA
TDP-43 RRM1-2 P112H = TDP-43 RRM1-2 P112H (UniProt Q13148); experiment: fluorescence anisotropy; conditions: legend says Fl-(UG)4; Anisotropy: 50 mM Tris, 100 mM NaCl, pH 8.0, 10 C, 0.1 uM probe, 0-30 uM protein (RNasin for RNA); recombinant protein; residues 96-267; protein details: GSSGSSG linker, His removed by thrombin; label: 5'-fluorescein; single-stranded DNA
TDP-43 RRM1-2 R151A = TDP-43 RRM1-2 R151A (UniProt Q13148); experiment: fluorescence anisotropy; conditions: Anisotropy: 50 mM Tris, 100 mM NaCl, pH 8.0, 10 C, 0.1 uM probe, 0-30 uM protein (RNasin for RNA); recombinant protein; residues 96-267; protein details: GSSGSSG linker, His removed by thrombin; label: 5'-fluorescein; single-stranded DNA

Sequence	binding result (TDP-43 RRM1-2)	binding result (TDP-43 RRM2)	binding result [1]	binding result (TDP-43 RRM1-2 P112H)	binding result (TDP-43 RRM1-2 R151A)
AAAAAAAAAAAAAAAAAAAAAAAAAAAAAA [A10(AA)5A10]	no binding	no binding	binds	–	–
TGTGTGTG [Fl-(TG)4 ssDNA]	–	–	–	binds	binds
